## Assay results

From PubChem BioAssay record AID504749 (NCATS, 2011).

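A panel of P. falciparum strains inside erythrocytes is exposed to compounds for three days, then a DNA-binding dye reports the amount of parasite DNA. Each compound was titrated across a series from about 0.000037 to 29 µM. The number is the fitted AC50, the concentration giving a half-maximal change in signal; a lower value means higher potency, whether the curve shows a decrease or an increase. Calls follow the curve class and fit quality: every row here is inconclusive, covering signal-raising curves and weak, poorly fitted, partial or highest-dose-only inhibition curves.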

Values are in nM. Every entry below has the call inconclusive. These entries are mostly ones the record files as inconclusive; other results of the assay are not listed here. A potency from a partial, single-point or poor curve is only a rough figure. Some entries filed as inconclusive have a full curve. The first word of each remark tells which way the curve ran; it can be opposite to the aim of the assay.

CN1CCC(=C2c3ccccc3CCc3sccc32)CC1 [PC15] gave Potency 4467 nM (inhibitor, partial curve).
CN1CCC(=C2c3ccccc3CCc3sccc32)CC1 [ATS95] gave Potency 11220 nM (inhibitor, partial curve).
CN1CCC(=C2c3ccccc3CCc3sccc32)CC1 [TAB109] gave Potency 4467 nM (inhibitor, partial curve).
CN1CCC(=C2c3ccccc3CCc3sccc32)CC1 [PAD] gave Potency 8912 nM (inhibitor, partial curve).
CN1CCC(=C2c3ccccc3CCc3sccc32)CC1 [CP335] gave Potency 11995 nM (inhibitor, single point).
Cc1cncc(C(=O)O)[n+]1[O-] [TAB165] gave Potency 3981 nM (inhibitor, single point).
Cc1cncc(C(=O)O)[n+]1[O-] [CP247] gave Potency 3981 nM (inhibitor, single point).
Cc1cncc(C(=O)O)[n+]1[O-] [CP252] gave Potency 3548 nM (inhibitor, single point).
Cc1cncc(C(=O)O)[n+]1[O-] [CP265] gave Potency 3548 nM (inhibitor, single point).
Cc1cncc(C(=O)O)[n+]1[O-] [CP250] gave Potency 1122 nM (inhibitor, single point).
Cc1cncc(C(=O)O)[n+]1[O-] [P93_24] gave Potency 3162 nM (inhibitor, single point).
Cc1cncc(C(=O)O)[n+]1[O-] [CP256] gave Potency 3548 nM (inhibitor, single point).
Cc1cncc(C(=O)O)[n+]1[O-] [CP217] gave Potency 3548 nM (inhibitor, single point).
Cc1cncc(C(=O)O)[n+]1[O-] [CP191] gave Potency 3548 nM (inhibitor, single point).
Cc1cncc(C(=O)O)[n+]1[O-] [CP203] gave Potency 106.9 nM (activator, full curve, poor fit).
Cc1cncc(C(=O)O)[n+]1[O-] [TAB109] gave Potency 3981 nM (inhibitor, single point).
Cc1cncc(C(=O)O)[n+]1[O-] [CP185] gave Potency 354.8 nM (inhibitor, full curve).
Cc1cncc(C(=O)O)[n+]1[O-] [ATS189] gave Potency 3981 nM (inhibitor, single point).
Cc1cncc(C(=O)O)[n+]1[O-] [AA1029] gave Potency 3548 nM (inhibitor, single point).

The last 2 entries again:

- Cc1cncc(C(=O)O)[n+]1[O-] [ATS189] : Potency 3981 nM (inhibitor, single point)
- Cc1cncc(C(=O)O)[n+]1[O-] [AA1029] : Potency 3548 nM (inhibitor, single point)